# According to PubChem BioAssay AID2517 (National Center for Advancing Translational Sciences (NCATS), 2010):
# Amino acid sequences for entries named in this document (tags omitted).
# UniProt P27695, whole entry, looked up: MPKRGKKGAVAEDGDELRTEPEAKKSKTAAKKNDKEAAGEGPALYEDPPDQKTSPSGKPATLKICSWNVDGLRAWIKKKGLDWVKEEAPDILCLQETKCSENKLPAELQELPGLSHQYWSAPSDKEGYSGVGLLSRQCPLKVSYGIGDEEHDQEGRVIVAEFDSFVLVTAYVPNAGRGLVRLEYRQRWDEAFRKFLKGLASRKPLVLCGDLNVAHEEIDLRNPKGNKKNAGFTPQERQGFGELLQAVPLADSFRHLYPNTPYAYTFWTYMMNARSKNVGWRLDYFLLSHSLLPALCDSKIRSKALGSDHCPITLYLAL
# In all, about 350,000 compounds went through this assay and about 1,200 (0.34%) were called active. Inconclusive results, whose numbers are uncertain, are shown with a selection of clear calls. The call rests on the fitted dose curve; in most records, active means well fitted inhibition curve with a large enough effect; inconclusive means small, poorly fitted or top-dose-only effect; inactive means no such curve, though single readings can be large or run the other way. A potency beside an inconclusive call is a rough fit, not a confirmed value.
# Target: DNA repair nuclease/redox regulator APEX1 (Homo sapiens) (UniProt P27695)
# Experiment: qHTS Assay for Inhibitors of the Human Apurinic/apyrimidinic Endonuclease 1 (APE1); further: nearly all actives have a fitted effect of over 55% in size;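 on activity change, negative = inhibition: plate controls were vehicle for no effect and reference inhibitor for full effect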
# Conditions: recombinant APE1, TAMRA/BHQ-2 abasic DNA cleavage fluorescence; activity change, negative = inhibition: at 65.8 µM (top of the series)
# In short: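 APE1 at 0.75 nM preincubated 15 min at room temperature with compound. Reaction then started with 50 nM double-stranded THF-abasic substrate labelled with TAMRA/BHQ-2, and 525/598 nm fluorescence read kinetically. Activity taken as third-minus-first read difference, normalized to DMSO and NSC13755 controls.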
# Potency means the concentration at half of the fitted maximal effect.
SMILES,Potency,"activity change, negative = inhibition"
O=C(Nc1cc(S(=O)(=O)N2CCOCC2)ccc1O)c1ccco1,"inconclusive: 0.224 µM [inhibitor, full curve]",
COc1ccc2nc(SCC(=O)Nc3ccccc3OC)[nH]c2c1,"inconclusive: 5.01 µM [inhibitor, single point]",
NC(=S)N/N=C/c1cccc(O)c1O,"inconclusive: 14.1 µM [inhibitor, partial curve]",
O=C(Nc1cnn(Cc2ccc(F)cc2)c1)c1cnccn1,,inactive: -3.17%
CC(=O)c1ccc(S(=O)(=O)N2CCC(NC(=O)Nc3cccc(F)c3)CC2)cc1,"inconclusive: 39.8 µM [inhibitor, single point]",
COc1cccc2sc(Nc3nc(-c4ccncc4)cs3)nc12,"inconclusive: 8.91 µM [inhibitor, partial curve]",
Cn1c(N)c(C(=O)CSc2nnc(-c3c[nH]c4ccccc34)n2C2CC2)c(=O)[nH]c1=O,"inconclusive: 23.8 µM [inhibitor, single point]",
O=C(C1CCC(CNS(=O)(=O)c2ccc(F)cc2)CC1)N1CCOCC1 (stereo unspecified),"inconclusive: 0.891 µM [inhibitor, single point]",
Cc1nc(SCC(=O)NC(=O)NC(C)(C)C)nc(C)c1C,"inconclusive: 7.94 µM [inhibitor, single point]",
C=CCNC(=O)c1ccc(Cn2c(=S)[nH]c3cc4c(cc3c2=O)OCO4)cc1,"inconclusive: 25.1 µM [inhibitor, single point]",
Cc1ccc(-n2nc(-c3ccco3)cc2C(=O)NCc2cccnc2)cc1,"inconclusive: 35.5 µM [inhibitor, single point]",
Cc1[nH]c2ccc(-c3nnc(SCC(=O)N4CCCc5ccccc54)o3)cc2c1C,"inconclusive: 3.16 µM [inhibitor, single point]",
N#CCCN1CCN(C(=S)c2ccc(-c3ccc(Cl)cc3)o2)CC1,,inactive: -8.98%
O=C(OCCNc1ncc(C(F)(F)F)cc1Cl)c1ccc(S(=O)(=O)N2CCOCC2)cc1,"inconclusive: 35.5 µM [inhibitor, partial curve]",
Cn1cc(S(=O)(=O)N2CCCC2)cc1C(=O)Nc1cccc(C(F)(F)F)c1,,inactive: 5.59%
Cc1ccn2c(=O)nc(SCC(=O)c3ccccc3)nc2c1,,inactive: -10.2%
CC(C)(O)C#Cc1ccc(CNC[C@H]2O[C@@H](n3cnc4c(N)ncnc43)[C@H](O)[C@@H]2O)s1,,inactive: 8.12%
O=C(O)c1ccccc1SC1CC(=O)N(c2cccc3ccccc23)C1=O (stereo unspecified),,inactive: 3.03%
CC(=O)NC(=S)Nc1ccc(NC(=S)NC(=O)/C=C/c2ccco2)cc1,"inconclusive: 35.5 µM [inhibitor, single point]",
Cc1oc2c(C)c3oc(=O)c(CC(=O)N[C@@H](CCCNC(N)=O)C(=O)O)c(C)c3cc2c1C,"inconclusive: 23.8 µM [inhibitor, single point]",
Cc1noc(C)c1-c1cncnc1NCc1cccnc1,"inconclusive: 2.82 µM [inhibitor, single point]",
O=C(/C=C/c1ccc(O)cc1)c1c(O)cc(O)cc1O,"inconclusive: 39.8 µM [inhibitor, single point]",

SMILES,Potency,"activity change, negative = inhibition"
COc1cc(/C=C2\C(=N)N3N=C(S(C)(=O)=O)SC3=NC2=O)ccc1OC(=O)c1ccco1,"inconclusive: 26.7 µM [inhibitor, single point]",
CC1Cc2ccccc2N1C(=O)CSc1nnc(NC(=O)Cc2cccs2)s1 (stereo unspecified),"inconclusive: 31.6 µM [inhibitor, single point]",
Cc1cccc(OCCCSc2nc3ccccc3[nH]2)c1,"inconclusive: 39.8 µM [inhibitor, partial curve, poor fit]",
CC(C)N(C(=S)Nc1cccc(C(F)(F)F)c1)C(C)c1ccccn1 (stereo unspecified),"inconclusive: 28.2 µM [inhibitor, single point]",
CN1c2ccccc2C(C)(C)C12C=Nc1c(cc(N3CCOCC3)c3ccccc13)O2 (stereo unspecified),,inactive: 1.5%
COc1ccc(CN(C)C(c2ccccc2)c2nnnn2-c2ccccc2C)c(OC)c1C (stereo unspecified),"inconclusive: 0.631 µM [inhibitor, full curve, poor fit]",
O=C(O)c1cc(N=Nc2c(O)ccc3ccccc23)cc(C(=O)O)c1,"inconclusive: 28.2 µM [inhibitor, single point]",
O=C(CC1SC2=NCCN2C1=O)Nc1ccc(Br)cc1 (stereo unspecified),,inactive: 9.69%
C=C1C(=O)OC2CC1C(OC(C)=O)CC(C)=CCCC(C)=CCC[C@@]2(C)O (stereo partly specified),,inactive: -1.5%
O=C(NCC1COCCO1)c1cc(COc2ccc(F)cc2F)on1 (stereo unspecified),,inactive: 12.6%
CCn1c(SCc2nc3ccccc3c(=O)[nH]2)nc2ccccc21,,inactive: -4.4%
COc1ccc(/C=C/C(=O)c2cc3c(cc2N)OCO3)cc1,,inactive: 5.29%
CCN(CC)CCCn1c(C)cc2c(c1=O)C(c1ccc(OC)c(OC)c1OC)C(C#N)=C(N)O2 (stereo unspecified),"inconclusive: 28.2 µM [inhibitor, single point]",
O=C(Cn1nnc(-c2cc(C(F)(F)F)cc(C(F)(F)F)c2)n1)NNC(=S)Nc1ccc(Cl)cc1,,inactive: -0.822%
CC#CC(=O)Nc1cc2c(Nc3ccc(F)c(Cl)c3)ncnc2cn1,"inconclusive: 22.4 µM [inhibitor, partial curve, poor fit]",
Cc1cc(NC(=O)CSc2nc3c([nH]c4ccccc43)c(=O)n2-c2cccc(C(F)(F)F)c2)no1,"inconclusive: 6.31 µM [inhibitor, partial curve]",
O=C(CSCC(=O)NCc1ccco1)NCc1ccco1,"inconclusive: 0.562 µM [inhibitor, full curve]",
COc1ccc(OCC(=O)Nc2nc3ccccc3[nH]2)cc1,"inconclusive: 8.91 µM [inhibitor, single point]",
Cn1c(O)c(C=Nc2ccc(Br)cc2)sc1=O,"inconclusive: 0.0089 µM [inhibitor, full curve, poor fit]",
O=C(CCN1C(=O)C2C3C=CC(C3)C2C1=O)Nc1ccc2c(c1)OCO2 (stereo unspecified),"inconclusive: 35.5 µM [inhibitor, single point]",
CCOc1ccc2nc(C)cc(Nc3cccc([N+](=O)[O-])c3)c2c1,"inconclusive: 20 µM [inhibitor, partial curve]",
CN(C)C(CNC(=O)CNC(=O)c1ccc(Br)cc1)c1ccccc1 (stereo unspecified),"inconclusive: 3.16 µM [inhibitor, single point]",

# An excerpt of these results, as tab-separated lines:
SMILES	Potency	activity change, negative = inhibition
CC(C)N(C(=S)Nc1cccc(C(F)(F)F)c1)C(C)c1ccccn1 (stereo unspecified)	inconclusive: 28.2 µM [inhibitor, single point]	
CN1c2ccccc2C(C)(C)C12C=Nc1c(cc(N3CCOCC3)c3ccccc13)O2 (stereo unspecified)		inactive: 1.5%
COc1ccc(CN(C)C(c2ccccc2)c2nnnn2-c2ccccc2C)c(OC)c1C (stereo unspecified)	inconclusive: 0.631 µM [inhibitor, full curve, poor fit]	

# The listing continues:

SMILES,Potency,"activity change, negative = inhibition"
Oc1cc(-c2cccnc2)cc2cccnc12,inactive,
O=C(Cn1cnc([N+](=O)[O-])n1)NCCc1ccccc1,"inconclusive: 20 µM [inhibitor, single point]",
Cc1nn(C)c(=O)c(N)c1-c1cc(-c2ccc(Cl)c(Cl)c2)n[nH]1,"inconclusive: 7.94 µM [inhibitor, single point]",
Cc1c2c(=O)n(-c3nc4ccccc4s3)nc-2cc(O)n1Cc1ccccc1,"inconclusive: 39.8 µM [inhibitor, single point]",
Cc1ccc(C)c(OCCn2cc(/C=C(\C#N)C(=O)NCC3CCCO3)c3ccccc32)c1 (stereo unspecified),"inconclusive: 20 µM [inhibitor, partial curve, poor fit]",
CC(C)(CS(=O)(=O)[O-])NC(=O)CC[N+](C)(C)CCO,active: 6.31 µM,
Nc1ccc2oc(-c3ccccc3Cl)cc(=O)c2c1O,"inconclusive: 7.94 µM [inhibitor, single point]",
O=C(O)c1ccc(COc2ccccc2[N+](=O)[O-])o1,"inconclusive: 25.1 µM [inhibitor, single point]",
Cc1cccc(C)c1NC(=O)C(NC=O)c1ccccc1Cl (stereo unspecified),"inconclusive: 0.1 µM [inhibitor, full curve, poor fit]",
COc1ccc(-n2c(N)c(C(=O)NCC3CCCO3)c3nc4ccccc4nc32)c(OC)c1 (stereo unspecified),"inconclusive: 25.1 µM [inhibitor, partial curve, poor fit]",
CN1C=CC(=C2C=CN(C)C=C2)C=C1,,inactive: 26.7%
Cc1nn2c(Nc3ccccc3)c3c(nc2c1-c1ccccc1)CCC3,"inconclusive: 0.158 µM [inhibitor, full curve]",
C=CCn1c(COc2ccc(F)cc2)nnc1SCC(=O)NC(=O)NCc1ccco1,"inconclusive: 39.8 µM [inhibitor, single point]",
CCc1ccc(N2CSC3=C(C#N)C(c4cccs4)CC(=O)N3C2)cc1 (stereo unspecified),,inactive: -4.39%
CCOC(=O)N1CCN(CC(=O)Nc2sc(CC)cc2C(=O)c2ccc(OC)cc2)CC1,"inconclusive: 3.16 µM [inhibitor, single point]",
Cc1ccc2c(c1)-c1nc3ccccc3cc1C2=NC1CCCCC1,"inconclusive: 8.91 µM [inhibitor, partial curve, poor fit]",
CC(C)(C)C(=O)NCC12C=CC(O1)C1C(=O)N(c3ccccc3)C(=O)C12 (stereo unspecified),"inconclusive: 12.6 µM [inhibitor, partial curve, poor fit]",
COc1ccc(-c2cc3ccc(OCc4nn[nH]n4)cc3oc2=O)cc1,"inconclusive: 44.7 µM [inhibitor, single point]",
Clc1ccc(Nc2ccc(Cl)nn2)cc1,"inconclusive: 5.62 µM [inhibitor, single point]",
C[C@@H]1NC(=O)[C@@H](N)CNC(=O)[C@H](C2CCNC(N)=N2)NC(=O)/C(=C/NC(N)=O)NC(=O)[C@H](CNC(=O)C[C@@H](N)CCCN)NC1=O (stereo partly specified),"inconclusive: 44.7 µM [inhibitor, single point]",
CC(C)(C)n1nnnc1C(c1cccs1)N(Cc1cccnc1)Cc1ccco1 (stereo unspecified),"inconclusive: 11.2 µM [inhibitor, full curve]",
O=C1Nc2cc(C(=O)NCCCN3CCOCC3)ccc2S/C1=C/c1ccccc1F,,inactive: 23.8%
